± gives the standard deviation. Only a part is listed here, and it is no random draw. Many of these values have a large error.
System: MIWI (PIWIL1) piRISC loaded with L1MC piRNA (30 nt)
Test: pre-steady-state target cleavage rate (min^-1); MIWI and MILI are mouse PIWI proteins and EfPiwi is from a freshwater sponge; tags in brackets are library labels; higher = faster piRNA-guided slicing of the target
Conditions: guide: L1MC piRNA 5'p-UAACUAAAUACUAUGCAAGCUGUAGGUCCU; auxiliary factor: 500 nM mouse GTSF1
Method in brief: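 At 33 °C in HEPES–potassium acetate buffer, a transcribed, DNA-blocked target RNA library […] was exposed for 0–8 or 0–960 min to 1 nM active affinity-purified piRISC carrying a single synthetic guide, with or without 500 nM GTSF1 partner protein. Uncleaved targets were sequenced and normalised to depth and to weakly complementary targets. With three trials pooled and k3 capped at 0.0001 min^-1, a burst-and-steady-state fit produced the pre-steady-state cleavage rate.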
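Further: 1 nM active piRISC with 0.1 nM target library at 33 °C single turnover.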

Sequence	pre-steady-state target cleavage rate
UCCUGGAUGUCGAACCAUAGUAUCUUAGUUA	0.000275 ± 0.017
UCCUGGAUGUCGAACGUUAGUAUUUUAGUUA	0.000433 ± 0.014
AGGACCUACAGCAUGCAUAGUAUUUAGUUA	1.33 ± 0.06
UCGACCUACAGCUCGCAUAGUAUUUAGUUA	1.55 ± 0.04

Same assay, conditions: guide: L1MC piRNA 5'p-UAACUAAAUACUAUGCAAGCUGUAGGUCCU; auxiliary factor: none (no GTSF1)

Sequence	pre-steady-state target cleavage rate
UCCACCUUGUGCUUGCAUAGUAUUUAGAAA	0.00211 ± 0.0024
UCCACCUACAGCUUGCGAUAGUAUUUAGUUA	0.000792 ± 0.01
AGGACCUACAGCUUGCUAUCAUAAAUCAAA [g15:g30:cont:t1A]	0.000524 ± 0.013
UGGACCUACAGCUUGCAUAGUUUUAGUUA	0.000455 ± 0.0054
UCCACCUACAGCUUGCAUAGUAAAAAGAAA	0.000758 ± 0.01
UGGACCUACAGCUUGCAUAGUUAAUAGAAA	0.00058 ± 0.0054
UGGACCUACAGCUUGCAUAGUAUAUACAAA	0.00154 ± 0.0043
AGGACCUUGAGCUUGCAUAGUAUUUUCAAA	0.00212 ± 0.0024
AGGACCUACAGCUACGAUAGUAUUUUCAAA	0.000688 ± 0.0094
UCGACCUACAGCUAGCAUAGUAUUUACAAA	0.00166 ± 0.0049
UGGACCUACAGCUUGCAAAGUAUUUUCAAA	0.00295 ± 0.0031
UCCACCUUCAGCUUGCAUAGUAUUUUCAAA	0.00179 ± 0.0025
UCCACCUACAGCUACGAUAGUAUUUACAAA	0.00019 ± 0.018
UCCUGGAUGUCGAAGCAUAGUUUUAAGUUA	0.000598 ± 0.0083
UGGACCUACAGCUUGCACUAGUAUUUAGUUA	0.000894 ± 0.0066
UCGACCUACAGGAUGCAUAGUAUUUUCAAA	0.000697 ± 0.0074
UCGACCUACAGCUUGCAUACAUAAAUCAAA [g12:g28:cont:t1A]	0.00048 ± 0.015
UCCACCUACAGCAUGCAUAGUAUUUUCAAA	0.000721 ± 0.007

Pulled one by one from the entries so far, 2 records:
Sequence	pre-steady-state target cleavage rate
UCCACCUUCAGCUUGCAUAGUAUUUUCAAA	0.00179 ± 0.0025
AGGACCUACAGCUUGCUAUCAUAAAUCAAA [g15:g30:cont:t1A]	0.000524 ± 0.013

Following part

Sequence	pre-steady-state target cleavage rate
UCGACCUUGUGCUUGCAUAGUAUUUUCAAA	0.00146 ± 0.0026
AGGACCUACAGGAAGCAUAGUAUUUAGAAA	0.00129 ± 0.0029
UCCACCUACAGCUUGCAUAGAUAUUAGUUA	0.00104 ± 0.006
AGCACCUACAGCUUCCAUAGUAUUUAGUUA	0.0012 ± 0.0048
UCGACCUACAGCUUCGUUAGUAUUUACAAA	0.000624 ± 0.0088
UGGACCUACAGCUACCAUAGUAUUUACAAA	0.000211 ± 0.011
UCCUCCUACAGCUUGCAUAGUAUUUUCAAA [g6:g26:cont:t1A]	0.00187 ± 0.0052
AGGACCUACAGCAACCAUAGUAUUUAGAAA	0.000307 ± 0.012
UCGACCUACAGCUUGCAUAGAUAUUAGUUA	0.00108 ± 0.004
UCGACCUACAGCUUGCUAUGUAUUUAGUAA	0.00194 ± 0.0029
AGGACCUACUCGUUGCAUAGUAUUUUCAAA	0.00192 ± 0.0023
UCCUGGAUGUCGAACGAUAGUUUUAGUUA	0.000291 ± 0.018
UGGACCUACAGCUUGCAUAGUUAAUAGUAA	0.00266 ± 0.003
UCGACCUACAGCUUCGUUAGUAUUUAGAAA	0.000706 ± 0.009
UCGACCUUCAGCUUGCAUAGUAUUUUCAAA	0.00278 ± 0.0034
UCCACCUACAGCUUGCAUACAUUUUAGUUA	0.000777 ± 0.0066
AGGACCUACAGCUUCGUUAGUAUUUAGUAA	0.000414 ± 0.0088
